The record followed here is article PMC7819943, “Rice protein-binding microarrays: a tool to detect cis-acting elements near promoter regions in rice”.

Chains of the proteins cited; added tags and fusions are not shown.
UniProt Q0JBA9, entry or part of it: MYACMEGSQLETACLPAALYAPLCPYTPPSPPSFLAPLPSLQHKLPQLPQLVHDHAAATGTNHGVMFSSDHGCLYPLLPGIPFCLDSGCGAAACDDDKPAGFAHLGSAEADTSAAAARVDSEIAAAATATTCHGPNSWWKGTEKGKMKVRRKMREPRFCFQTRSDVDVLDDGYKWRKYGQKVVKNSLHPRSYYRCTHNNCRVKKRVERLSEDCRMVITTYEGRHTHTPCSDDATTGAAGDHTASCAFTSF

This is one part of the list.

This experiment deals with OsWRKY34 (Oryza sativa, UniProt Q0JBA9 1-250). The experiment is described as follows: protein-binding microarray (RPBM); PBS, 2% BSA, 51.3 ng/ul salmon testes DNA, 50 uM zinc acetate, 200 nM TF, 25 C, 1 h; high values mean tight binding. The conditions noted are these: protein: recombinant; tags: N-terminal polyhistidine and DsRed monomer fusion (pET32a); label: CyDye5-dUTP incorporated in the synthesized complementary strand; 3' TTTTT single-stranded linker to array surface; dsDNA, one strand shown. In short, it runs like this: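 Binding signal here means per-feature fluorescence intensity in arbitrary units. The values were read on an Axon 4000B scanner after a custom Agilent array, double-stranded by primer extension with Cy5-dUTP, was incubated with 200 nM protein at 25 °C for 1 h in PBS with 2% BSA, salmon testes DNA and 50 µM zinc acetate, then washed. The proteins were transcription factors with an N-terminal polyhistidine tag and DsRed, expressed in E. coli BL21-CodonPlus and purified on Ni–NTA.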
For the sequence “AAACACACTGACACGCATTCGGCCCGTTCCCTCGATGCGTCGGAGTCACCTAGTGCAG”, the binding signal was 8520 fluorescence intensity (a.u.).
“GGTGGCGGTTGCGGGTGGAGGGCCGCGGCGGTGCGACGAACGGAGTCACCTAGTGCAG”: the binding signal was 8480 fluorescence intensity (a.u.).
As for “GGGGCGCATGGGCGGGTGAGGGGCAGCAGTTGCGGGACGTCGGAGTCACCTAGTGCAG”, the binding signal is 8420 fluorescence intensity (a.u.).
The value for “GTGGCGCTCGCCATACCTCGCGCCGCCCGCTGACCAACCCCGGAGTCACCTAGTGCAG” was 8520 fluorescence intensity (a.u.); that for “GTCTTCACATCATATCATACGTTCTAAAAACTGACCTAAACGGAGTCACCTAGTGCAG” was 8470 fluorescence intensity (a.u.); that for “TGTTTGTTAGGTTTACCCGAGCTCTTAAAATTTTTTGAATCGGAGTCACCTAGTGCAG” was 8080 fluorescence intensity (a.u.).
As for “GTGTTTGTCATTTTCCTCGTTGCTCTGAACTTCTACGTGTCGGAGTCACCTAGTGCAG”, the binding signal is 9350 fluorescence intensity (a.u.).
The value for “TAGGGGTAGGGTTTGCGTGCGCGTGCATTGTGAGTGTCTGCGGAGTCACCTAGTGCAG” was 11000 fluorescence intensity (a.u.); that for “CTGCTGCTCTTTGTTGGCGTTGCTTGCTGCTGACCAAGCTCGGAGTCACCTAGTGCAG” was 11500 fluorescence intensity (a.u.).
For “AAAAACCTCGGCTCTCGTCTGCTCGATCGAACAAGTTCCTCGGAGTCACCTAGTGCAG”, the binding signal was 8610 fluorescence intensity (a.u.).
Take “GCTTCCATTAGTGTACTTCCCCAACAAGCTCTTATTTGCCCGGAGTCACCTAGTGCAG”: the binding signal is 10100 fluorescence intensity (a.u.).
Consider “ACGGTGTGGGGAGGTAAATTGATTCGCTGTGCTCGATTTTCGGAGTCACCTAGTGCAG”, for which the binding signal was 9080 fluorescence intensity (a.u.).
On to “GTTGACTTTAACCGTGCTGTGCATCCCATTAATTGGATTACGGAGTCACCTAGTGCAG”, for which the binding signal was 8840 fluorescence intensity (a.u.).
Regarding “TTACTTCTTTGAGCCTCTCAGATCTGTTCTTTGTTTGATTCGGAGTCACCTAGTGCAG”, the binding signal was 11600 fluorescence intensity (a.u.).
The value for “TACCAACTGCGCTTTGCTCTACACTTACTCCTATCAAAGCCGGAGTCACCTAGTGCAG” was 9580 fluorescence intensity (a.u.).
As for “ACACATCTCCTCGTCGTGCCATCGTGTGACGACGTCTCGTCGGAGTCACCTAGTGCAG”, the binding signal was 10100 fluorescence intensity (a.u.).
The figure for “ATATTGATCTTGCTGCATTTGATATGCTCAGGCTGTTTTACGGAGTCACCTAGTGCAG” is 8790 fluorescence intensity (a.u.).
With “ATACTTCTCTCAAGATATCTCTCTGTTCATCCACGCTACCCGGAGTCACCTAGTGCAG”, the binding signal was 8680 fluorescence intensity (a.u.).
On to “TTTAATTATTTTGATTATTTTATCATGACTTATCGGTTGTCGGAGTCACCTAGTGCAG”, for which the binding signal is 11100 fluorescence intensity (a.u.).
Consider “CTTGACACCCACCGACCTACCCCAAGGGCCGAACCAACCACGGAGTCACCTAGTGCAG”, for which the binding signal was 8050 fluorescence intensity (a.u.).
For the sequence “GTCGGGTGTGTTGAGCTCGGTGGTGGCGGCAGTGAGAAATCGGAGTCACCTAGTGCAG”, the binding signal was 11000 fluorescence intensity (a.u.).
Consider “AAATTTGTCTGACAAATGTATAGGTGGTCCCTTGCGGTTTCGGAGTCACCTAGTGCAG”, for which the binding signal was 8800 fluorescence intensity (a.u.).
Regarding “CTTGTTTTAGTTTGAATTTTCACTTCTCTATCTATTACATCGGAGTCACCTAGTGCAG”, the binding signal was 9780 fluorescence intensity (a.u.).
The figure for “GCGTCTTTTTCCAACCTTGTGGATGCTTTCGATCATGCATCGGAGTCACCTAGTGCAG” is 11600 fluorescence intensity (a.u.).
The value for “TCTTGTTCTAGTTTCCATATGGCTGAAGACTGAAGTAGCACGGAGTCACCTAGTGCAG” was 9170 fluorescence intensity (a.u.).
Turning to “CTGCTGAATATTGGTCTCCTTACTGAGGGAGGGGTAACAACGGAGTCACCTAGTGCAG”, the binding signal was 9900 fluorescence intensity (a.u.).
For the sequence “TCGCTCTCGTTGGATTCGGTTTGGTTTGGTTTGGGCCATGCGGAGTCACCTAGTGCAG”, the binding signal is 18700 fluorescence intensity (a.u.).
The value for “TTCTGGTTTTGTTGTGTGTCATCACCAGTACATTTTGTTGCGGAGTCACCTAGTGCAG” was 8560 fluorescence intensity (a.u.).
The figure for “TCCTGCCTCCGCCTTTCTCGCACGCAGGCCGCTTGAGCTCCGGAGTCACCTAGTGCAG” is 8120 fluorescence intensity (a.u.).
In the case of “ATATATTTAAACTCATGGGCTCACATACTTTTTCCGTTCCCGGAGTCACCTAGTGCAG”, the binding signal is 9880 fluorescence intensity (a.u.).
Regarding “GTTCTACCGCGCACTCCGCCGCCGCTGATTTTGTTTGACACGGAGTCACCTAGTGCAG”, the binding signal is 10200 fluorescence intensity (a.u.).
Regarding “CCTGCACCTGGGGTTGGGTCGAGTAGGGCAAACGATCGATCGGAGTCACCTAGTGCAG”, the binding signal was 8950 fluorescence intensity (a.u.).
With “AATCCTAATCTAGTTCTATTTTTCTTTTTTCTTATTTTTTCGGAGTCACCTAGTGCAG”, the binding signal was 9630 fluorescence intensity (a.u.).
The value for “TTCGTATTTGTTTCCGTATCCGGATTATTCATATTCGTTTCGGAGTCACCTAGTGCAG” was 8050 fluorescence intensity (a.u.).
For “CTCTCCATAGAGGCTGTCTGTCTGTCGTTTCTCTCACTAGCGGAGTCACCTAGTGCAG”, the binding signal is 9070 fluorescence intensity (a.u.).
The value for “GCGCGATCCATCACCCGGACCAGCTTCACACCCGCGTAAACGGAGTCACCTAGTGCAG” was 11600 fluorescence intensity (a.u.).
The value for “CCCACCAGTCAGTGTCAGTGGACTGGGCCGTTGACCAGACCGGAGTCACCTAGTGCAG” was 14000 fluorescence intensity (a.u.).
Regarding “GGCATCTCTTTCTTTCGCGTTTTCTCTTCCGCCAGATAGGCGGAGTCACCTAGTGCAG”, the binding signal is 12300 fluorescence intensity (a.u.).
Regarding “CATCCAGCACCATCCAGGATCTCCCTTGTAATTCCTAAATCGGAGTCACCTAGTGCAG”, the binding signal is 10300 fluorescence intensity (a.u.).
Take “ACACTACGGTCTATATATGGGCCATTCCTAGCAGGTGCACCGGAGTCACCTAGTGCAG”: the binding signal is 8600 fluorescence intensity (a.u.).
As to “AGCATGCCGTTCTCCGGTCAAACCTGCCGTCGCCGCCGTCCGGAGTCACCTAGTGCAG”, the binding signal was 9380 fluorescence intensity (a.u.).
As to “ATGTAGATCTTGTAGGTCTCGACGCTCTTCTTCGCCTTCTCGGAGTCACCTAGTGCAG”, the binding signal was 9000 fluorescence intensity (a.u.).
